Measured values from the supplement of paper PMC12823440, “Inhibitors supercharge kinase turnover through native proteolytic circuits” (Nature, 2025).
Structures can show the parent of a compound that is named as a salt. Some of the results follow. Hit calls seldom repeat between salt and free forms of one compound.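 Kinases, fused to nanoluciferase, were expressed in K562 cells; luminescence was measured every 4 h from 2 to 18 h as percent of control (DMSO = 100%, positive control = 0%). A time point is decreased if signal falls significantly (2 sigma). Hits were called by the authors by a rule that is not shown; the count of time points alone does not decide it.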

The chains behind the UniProt entries cited, without tags or fusion partners. Where a name states a change or a piece, a line headed by the entry shows the natural chain unless it says otherwise.
UniProt P42356, whole entry, looked up: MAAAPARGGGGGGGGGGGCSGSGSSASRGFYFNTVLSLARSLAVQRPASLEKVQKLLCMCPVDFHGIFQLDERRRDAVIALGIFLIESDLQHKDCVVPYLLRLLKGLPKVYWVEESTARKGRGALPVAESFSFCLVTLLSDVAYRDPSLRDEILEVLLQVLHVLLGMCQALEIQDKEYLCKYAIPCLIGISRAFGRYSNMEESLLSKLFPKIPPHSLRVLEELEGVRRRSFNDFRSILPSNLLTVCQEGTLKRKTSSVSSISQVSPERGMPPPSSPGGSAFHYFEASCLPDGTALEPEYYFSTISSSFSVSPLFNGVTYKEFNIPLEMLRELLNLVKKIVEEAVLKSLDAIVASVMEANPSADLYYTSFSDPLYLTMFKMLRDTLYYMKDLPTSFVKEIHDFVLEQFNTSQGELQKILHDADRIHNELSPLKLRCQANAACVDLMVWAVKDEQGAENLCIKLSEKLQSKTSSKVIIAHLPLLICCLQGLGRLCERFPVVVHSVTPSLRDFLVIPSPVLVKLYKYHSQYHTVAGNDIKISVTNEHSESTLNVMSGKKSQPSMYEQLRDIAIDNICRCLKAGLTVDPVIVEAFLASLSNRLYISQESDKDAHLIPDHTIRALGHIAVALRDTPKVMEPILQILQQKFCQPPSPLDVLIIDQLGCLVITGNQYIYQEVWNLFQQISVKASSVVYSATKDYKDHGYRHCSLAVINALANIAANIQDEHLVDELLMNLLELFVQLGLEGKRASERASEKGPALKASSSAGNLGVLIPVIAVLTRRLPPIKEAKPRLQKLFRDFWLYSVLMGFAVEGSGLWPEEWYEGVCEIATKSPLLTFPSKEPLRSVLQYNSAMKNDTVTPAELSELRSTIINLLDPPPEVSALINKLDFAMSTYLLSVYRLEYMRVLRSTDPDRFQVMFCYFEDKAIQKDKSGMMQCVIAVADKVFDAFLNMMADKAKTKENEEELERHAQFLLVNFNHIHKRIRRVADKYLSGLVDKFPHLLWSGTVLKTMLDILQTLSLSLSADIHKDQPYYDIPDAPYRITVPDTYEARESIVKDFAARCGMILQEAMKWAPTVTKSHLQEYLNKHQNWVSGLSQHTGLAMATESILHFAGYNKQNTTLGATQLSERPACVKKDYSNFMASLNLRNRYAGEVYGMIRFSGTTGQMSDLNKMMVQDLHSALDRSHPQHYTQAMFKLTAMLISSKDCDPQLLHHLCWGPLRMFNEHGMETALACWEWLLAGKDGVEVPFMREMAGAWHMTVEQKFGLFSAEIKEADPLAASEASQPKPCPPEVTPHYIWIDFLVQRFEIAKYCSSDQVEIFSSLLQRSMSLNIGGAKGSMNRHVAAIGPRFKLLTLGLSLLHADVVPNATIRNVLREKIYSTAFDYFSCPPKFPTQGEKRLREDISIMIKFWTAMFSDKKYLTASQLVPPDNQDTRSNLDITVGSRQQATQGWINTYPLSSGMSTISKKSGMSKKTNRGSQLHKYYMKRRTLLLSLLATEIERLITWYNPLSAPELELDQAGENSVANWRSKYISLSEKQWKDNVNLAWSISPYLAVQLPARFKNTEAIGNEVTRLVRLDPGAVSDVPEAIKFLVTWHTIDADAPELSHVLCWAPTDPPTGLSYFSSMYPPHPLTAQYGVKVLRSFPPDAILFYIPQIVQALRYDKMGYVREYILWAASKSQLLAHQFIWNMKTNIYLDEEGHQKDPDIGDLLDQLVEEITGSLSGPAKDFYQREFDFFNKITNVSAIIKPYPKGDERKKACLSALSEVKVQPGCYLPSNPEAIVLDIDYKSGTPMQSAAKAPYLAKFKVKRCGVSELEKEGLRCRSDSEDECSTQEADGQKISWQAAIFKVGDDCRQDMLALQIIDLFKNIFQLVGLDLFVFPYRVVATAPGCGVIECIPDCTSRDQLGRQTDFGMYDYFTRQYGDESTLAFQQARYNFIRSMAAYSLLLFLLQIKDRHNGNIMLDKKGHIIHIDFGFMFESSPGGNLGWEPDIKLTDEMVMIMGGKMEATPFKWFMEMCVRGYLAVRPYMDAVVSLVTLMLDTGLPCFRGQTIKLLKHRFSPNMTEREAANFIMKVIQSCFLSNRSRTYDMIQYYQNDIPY
UniProt Q9UBF8: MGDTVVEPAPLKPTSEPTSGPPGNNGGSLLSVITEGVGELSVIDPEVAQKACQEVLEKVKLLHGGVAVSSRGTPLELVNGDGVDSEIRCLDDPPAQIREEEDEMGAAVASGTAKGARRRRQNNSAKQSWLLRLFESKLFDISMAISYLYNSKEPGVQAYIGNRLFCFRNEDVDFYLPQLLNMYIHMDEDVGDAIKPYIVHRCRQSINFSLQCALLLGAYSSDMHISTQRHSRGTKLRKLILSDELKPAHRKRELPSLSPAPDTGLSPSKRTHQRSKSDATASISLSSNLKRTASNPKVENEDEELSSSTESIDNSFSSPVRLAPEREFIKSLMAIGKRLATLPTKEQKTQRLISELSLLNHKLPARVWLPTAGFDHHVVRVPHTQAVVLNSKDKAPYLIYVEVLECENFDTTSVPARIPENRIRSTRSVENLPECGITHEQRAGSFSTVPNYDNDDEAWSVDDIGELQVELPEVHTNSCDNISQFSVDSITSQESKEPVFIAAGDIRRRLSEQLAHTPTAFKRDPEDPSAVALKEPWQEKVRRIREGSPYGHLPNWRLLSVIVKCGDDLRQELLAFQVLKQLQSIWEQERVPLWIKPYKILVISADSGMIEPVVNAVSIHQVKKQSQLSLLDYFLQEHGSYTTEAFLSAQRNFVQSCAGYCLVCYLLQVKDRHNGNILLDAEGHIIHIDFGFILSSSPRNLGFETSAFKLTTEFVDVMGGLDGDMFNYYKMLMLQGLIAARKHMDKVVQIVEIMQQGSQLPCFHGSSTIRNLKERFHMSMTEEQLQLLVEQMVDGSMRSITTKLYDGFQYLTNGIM
UniProt P53350, whole entry: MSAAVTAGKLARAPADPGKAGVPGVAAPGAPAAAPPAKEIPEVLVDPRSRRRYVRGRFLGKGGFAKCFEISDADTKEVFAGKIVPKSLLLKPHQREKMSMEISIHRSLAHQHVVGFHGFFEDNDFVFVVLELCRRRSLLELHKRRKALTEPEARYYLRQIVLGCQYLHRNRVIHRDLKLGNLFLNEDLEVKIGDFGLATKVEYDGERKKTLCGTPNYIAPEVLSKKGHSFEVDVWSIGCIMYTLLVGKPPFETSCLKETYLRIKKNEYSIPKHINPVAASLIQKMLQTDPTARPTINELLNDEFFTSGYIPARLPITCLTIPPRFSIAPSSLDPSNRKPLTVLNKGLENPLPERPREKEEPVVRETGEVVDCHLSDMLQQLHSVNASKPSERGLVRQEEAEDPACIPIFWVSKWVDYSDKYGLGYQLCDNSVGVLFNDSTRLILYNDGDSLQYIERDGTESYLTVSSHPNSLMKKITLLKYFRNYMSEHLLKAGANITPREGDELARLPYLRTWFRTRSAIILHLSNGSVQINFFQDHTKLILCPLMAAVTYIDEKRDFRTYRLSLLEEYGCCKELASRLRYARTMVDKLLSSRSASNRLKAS
UniProt Q05397, whole entry, looked up: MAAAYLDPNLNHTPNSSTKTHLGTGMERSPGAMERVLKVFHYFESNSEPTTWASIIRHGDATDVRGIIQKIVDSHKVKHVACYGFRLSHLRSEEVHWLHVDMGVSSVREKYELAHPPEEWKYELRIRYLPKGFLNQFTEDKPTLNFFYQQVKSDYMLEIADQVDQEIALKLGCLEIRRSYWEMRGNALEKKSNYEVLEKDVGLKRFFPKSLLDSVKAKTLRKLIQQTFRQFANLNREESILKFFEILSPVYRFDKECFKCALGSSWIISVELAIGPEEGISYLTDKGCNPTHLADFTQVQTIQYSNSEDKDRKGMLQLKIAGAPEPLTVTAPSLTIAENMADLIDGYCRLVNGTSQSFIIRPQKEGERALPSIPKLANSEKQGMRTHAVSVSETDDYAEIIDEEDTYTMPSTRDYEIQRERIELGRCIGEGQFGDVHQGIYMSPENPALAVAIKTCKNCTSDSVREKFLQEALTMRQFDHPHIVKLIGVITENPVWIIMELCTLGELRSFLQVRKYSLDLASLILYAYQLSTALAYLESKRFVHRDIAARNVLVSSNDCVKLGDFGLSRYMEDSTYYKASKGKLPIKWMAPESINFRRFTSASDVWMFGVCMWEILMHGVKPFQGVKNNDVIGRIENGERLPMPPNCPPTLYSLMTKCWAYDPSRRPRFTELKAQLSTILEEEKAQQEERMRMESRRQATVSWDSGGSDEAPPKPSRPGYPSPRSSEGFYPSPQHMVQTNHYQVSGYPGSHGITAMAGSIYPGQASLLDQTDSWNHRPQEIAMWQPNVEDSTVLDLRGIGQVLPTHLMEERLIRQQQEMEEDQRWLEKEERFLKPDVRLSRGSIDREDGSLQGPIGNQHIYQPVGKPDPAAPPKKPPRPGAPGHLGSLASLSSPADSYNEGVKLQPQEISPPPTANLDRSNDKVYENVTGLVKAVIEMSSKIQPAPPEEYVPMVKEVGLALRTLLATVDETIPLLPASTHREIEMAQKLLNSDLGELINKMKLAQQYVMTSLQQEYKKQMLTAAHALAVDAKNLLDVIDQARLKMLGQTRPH
UniProt Q14289, whole entry, looked up: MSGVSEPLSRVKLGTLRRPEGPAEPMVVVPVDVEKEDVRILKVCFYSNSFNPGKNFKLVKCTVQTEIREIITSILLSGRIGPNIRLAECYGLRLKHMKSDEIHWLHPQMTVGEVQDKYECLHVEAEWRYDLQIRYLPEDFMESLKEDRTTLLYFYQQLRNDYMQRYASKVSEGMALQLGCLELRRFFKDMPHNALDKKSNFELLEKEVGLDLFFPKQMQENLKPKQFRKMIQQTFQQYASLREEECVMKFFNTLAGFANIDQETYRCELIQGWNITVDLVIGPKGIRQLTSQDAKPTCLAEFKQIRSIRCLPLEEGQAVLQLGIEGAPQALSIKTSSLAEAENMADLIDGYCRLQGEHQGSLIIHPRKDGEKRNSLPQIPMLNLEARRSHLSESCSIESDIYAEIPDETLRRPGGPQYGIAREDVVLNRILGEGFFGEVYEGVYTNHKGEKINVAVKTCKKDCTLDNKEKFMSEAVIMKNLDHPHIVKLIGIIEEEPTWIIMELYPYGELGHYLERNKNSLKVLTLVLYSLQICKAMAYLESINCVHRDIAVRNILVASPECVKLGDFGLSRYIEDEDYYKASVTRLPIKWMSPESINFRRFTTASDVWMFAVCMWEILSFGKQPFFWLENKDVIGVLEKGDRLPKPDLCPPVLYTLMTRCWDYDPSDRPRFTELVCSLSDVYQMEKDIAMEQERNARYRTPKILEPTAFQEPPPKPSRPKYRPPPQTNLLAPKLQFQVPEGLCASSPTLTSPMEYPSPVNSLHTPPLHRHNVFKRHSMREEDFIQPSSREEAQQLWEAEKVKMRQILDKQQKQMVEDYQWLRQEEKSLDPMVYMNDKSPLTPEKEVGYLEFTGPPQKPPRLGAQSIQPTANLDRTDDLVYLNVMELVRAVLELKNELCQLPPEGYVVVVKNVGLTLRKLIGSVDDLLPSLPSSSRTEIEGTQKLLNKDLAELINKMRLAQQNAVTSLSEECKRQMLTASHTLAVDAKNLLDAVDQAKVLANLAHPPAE
UniProt Q9NYA1, whole entry: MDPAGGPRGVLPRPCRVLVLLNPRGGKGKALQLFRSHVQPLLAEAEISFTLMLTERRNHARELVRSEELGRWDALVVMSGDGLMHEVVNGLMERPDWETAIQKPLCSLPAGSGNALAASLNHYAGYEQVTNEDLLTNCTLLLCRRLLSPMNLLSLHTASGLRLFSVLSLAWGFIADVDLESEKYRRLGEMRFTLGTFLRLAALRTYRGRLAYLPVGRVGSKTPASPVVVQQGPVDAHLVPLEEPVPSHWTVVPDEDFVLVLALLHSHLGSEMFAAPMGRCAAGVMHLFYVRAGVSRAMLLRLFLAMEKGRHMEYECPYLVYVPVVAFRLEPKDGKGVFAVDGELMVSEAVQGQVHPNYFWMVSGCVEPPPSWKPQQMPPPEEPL
UniProt Q9Y6E0: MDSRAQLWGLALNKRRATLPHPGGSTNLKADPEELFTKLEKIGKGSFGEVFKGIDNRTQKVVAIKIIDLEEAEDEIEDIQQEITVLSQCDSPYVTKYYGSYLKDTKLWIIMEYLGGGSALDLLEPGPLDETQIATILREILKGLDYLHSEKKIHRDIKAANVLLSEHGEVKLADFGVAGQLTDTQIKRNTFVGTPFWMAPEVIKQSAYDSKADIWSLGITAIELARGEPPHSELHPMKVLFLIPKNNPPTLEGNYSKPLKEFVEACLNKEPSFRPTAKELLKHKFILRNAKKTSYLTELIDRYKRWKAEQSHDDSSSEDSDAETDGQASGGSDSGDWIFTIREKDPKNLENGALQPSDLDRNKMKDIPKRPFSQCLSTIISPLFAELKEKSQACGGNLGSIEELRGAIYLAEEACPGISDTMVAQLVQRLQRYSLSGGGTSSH

Columns and labels:
Assay in all cases: kinase-Nluc reporter destabilization hit call (1 = scored as downregulated) (binary); higher = compound decreases kinase abundance
Settings in all cases: K562; 2-18 h
PDPK1 = PDPK1 (UniProt O15530)
PIK4CA = PIK4CA (UniProt P42356)
PIK4CB = PIK4CB (UniProt Q9UBF8)
PLK1 = PLK1 (UniProt P53350)
PRKAA1 = PRKAA1 (UniProt Q13131)
PRKCA = PRKCA (UniProt P17252)
PTK2 = PTK2 (UniProt Q05397)
PTK2B = PTK2B (UniProt Q14289)
RAF1 = RAF1 (UniProt P04049)
[1] = biological target: RAF1_S257L (clone: RAF1_mut) (UniProt P04049)
RET = RET (UniProt P07949)
[2] = biological target: RET_M918T (clone: RET_mut) (UniProt P07949)
RIOK1 = RIOK1 (UniProt Q9BRS2)
RIPK1 = RIPK1 (UniProt Q13546)
RIPK2 = RIPK2 (UniProt O43353)
ROR2 = ROR2 (UniProt Q01974)
RPS6KA1 = RPS6KA1 (UniProt Q15418)
SPHK1 = SPHK1 (UniProt Q9NYA1)
SRC = SRC (UniProt P12931)
STK24 = STK24 (UniProt Q9Y6E0)

Measured: kinase-Nluc reporter destabilization hit call

O=C(Nc1ccc(Cl)cc1)C1CCCN(C(=O)c2cc(C(F)(F)F)cc(C(F)(F)F)c2)C1 (stereo not given) (10 µM)
inactive: PDPK1 = 0 | PIK4CA 0 | PIK4CB 0 | PLK1 = 0 | PRKAA1 = 0 | PRKCA 0 | PTK2 = 0 | PTK2B 0 | RAF1 = 0 | [1] 0 | RET 0 | [2] 0 | RIOK1 = 0 | RIPK1 = 0 | RIPK2 = 0 | ROR2 = 0 | RPS6KA1 = 0 | SPHK1 = 0 | SRC 0 | STK24 = 0

C=CC(=O)N1CCC[C@@H](n2nc(-c3ccc(Oc4ccccc4)cc3)c3c(N)n[nH]c(=O)c32)C1 [BTK inhibitor 17] (10 µM)
inactive: PDPK1 = 0 | PIK4CA 0 | PIK4CB 0 | PLK1 = 0 | PRKAA1 = 0 | PRKCA 0 | PTK2 = 0 | PTK2B 0 | RAF1 = 0 | [1] 0 | RET 0 | [2] 0 | RIOK1 = 0 | RIPK1 = 0 | RIPK2 = 0 | ROR2 = 0 | RPS6KA1 = 0 | SPHK1 = 0 | SRC 0 | STK24 = 0

COc1cc(-c2oc3cc(O)cc(O)c3c(=O)c2O)ccc1O [Isorhamnetin] (10 µM)
inactive: PDPK1 = 0 | PIK4CA 0 | PIK4CB 0 | PLK1 = 0 | PRKAA1 = 0 | PRKCA 0 | PTK2 = 0 | PTK2B 0 | RAF1 = 0 | [1] 0 | RET 0 | [2] 0 | RIOK1 = 0 | RIPK1 = 0 | RIPK2 = 0 | ROR2 = 0 | RPS6KA1 = 0 | SPHK1 = 0 | SRC 0 | STK24 = 0

Cn1ncc(NC(=O)c2nc(-c3c(F)cccc3F)sc2N)c1N1CC[C@@H](N)[C@H](F)CC1 (10 µM)
inactive: PDPK1 = 0 | PIK4CA 0 | PIK4CB 0 | PLK1 = 0 | PRKAA1 = 0 | PRKCA 0 | PTK2 = 0 | PTK2B 0 | RAF1 = 0 | [1] 0 | RET 0 | [2] 0 | RIOK1 = 0 | RIPK1 = 0 | RIPK2 = 0 | ROR2 = 0 | RPS6KA1 = 0 | SPHK1 = 0 | SRC 0 | STK24 = 0

Cn1c(CNc2cccc(C(=O)NCc3ccccc3C(F)(F)F)c2)nnc1-c1ccncc1 (10 µM)
inactive: PDPK1 = 0 | PIK4CA 0 | PIK4CB 0 | PLK1 = 0 | PRKAA1 = 0 | PRKCA 0 | PTK2 = 0 | PTK2B 0 | RAF1 = 0 | [1] 0 | RET 0 | [2] 0 | RIOK1 = 0 | RIPK1 = 0 | RIPK2 = 0 | ROR2 = 0 | RPS6KA1 = 0 | SPHK1 = 0 | SRC 0 | STK24 = 0

COc1ccc(Nc2ncc(C(F)(F)F)c(NC3CC3)n2)cc1OC (10 µM)
inactive: PDPK1 = 0 | PIK4CA 0 | PIK4CB 0 | PLK1 = 0 | PRKAA1 = 0 | PRKCA 0 | PTK2 = 0 | PTK2B 0 | RAF1 = 0 | [1] 0 | RET 0 | [2] 0 | RIOK1 = 0 | RIPK1 = 0 | RIPK2 = 0 | ROR2 = 0 | RPS6KA1 = 0 | SPHK1 = 0 | SRC 0 | STK24 = 0

NCCOc1ccc(Cl)cc1C(=O)Nc1ccc([N+](=O)[O-])cc1Cl [HJC0152 hydrochloride] (2 µM)
inactive: PDPK1 = 0 | PIK4CA 0 | PIK4CB 0 | PLK1 = 0 | PRKAA1 = 0 | PRKCA 0 | PTK2 = 0 | PTK2B 0 | RAF1 = 0 | [1] 0 | RET 0 | [2] 0 | RIOK1 = 0 | RIPK1 = 0 | RIPK2 = 0 | ROR2 = 0 | RPS6KA1 = 0 | SPHK1 = 0 | SRC 0 | STK24 = 0

Quoted at random: two records from the list.
NCCOc1ccc(Cl)cc1C(=O)Nc1ccc([N+](=O)[O-])cc1Cl [HJC0152 hydrochloride] (2 µM)
inactive: PDPK1 = 0 | PIK4CA 0 | PIK4CB 0 | PLK1 = 0 | PRKAA1 = 0 | PRKCA 0 | PTK2 = 0 | PTK2B 0 | RAF1 = 0 | [1] 0 | RET 0 | [2] 0 | RIOK1 = 0 | RIPK1 = 0 | RIPK2 = 0 | ROR2 = 0 | RPS6KA1 = 0 | SPHK1 = 0 | SRC 0 | STK24 = 0

COc1cc(-c2oc3cc(O)cc(O)c3c(=O)c2O)ccc1O [Isorhamnetin] (10 µM)
inactive: PDPK1 = 0 | PIK4CA 0 | PIK4CB 0 | PLK1 = 0 | PRKAA1 = 0 | PRKCA 0 | PTK2 = 0 | PTK2B 0 | RAF1 = 0 | [1] 0 | RET 0 | [2] 0 | RIOK1 = 0 | RIPK1 = 0 | RIPK2 = 0 | ROR2 = 0 | RPS6KA1 = 0 | SPHK1 = 0 | SRC 0 | STK24 = 0

Next part.

CC1=C(C(=O)Nc2cc3cn[nH]c3cc2F)C(c2ccc(C(F)(F)F)cc2)CC(=O)N1 (stereo not given) (10 µM)
inactive: PDPK1 = 0 | PIK4CA 0 | PIK4CB 0 | PLK1 = 0 | PRKAA1 = 0 | PRKCA 0 | PTK2 = 0 | PTK2B 0 | RAF1 = 0 | [1] 0 | RET 0 | [2] 0 | RIOK1 = 0 | RIPK1 = 0 | RIPK2 = 0 | ROR2 = 0 | RPS6KA1 = 0 | SPHK1 = 0 | SRC 0 | STK24 = 0

Cc1ccc(-n2nc(C(C)(C)C)cc2NC(=O)Nc2ccc(OCCN3CCOCC3)cc2)cc1 (10 µM)
inactive: PDPK1 = 0 | PIK4CA 0 | PIK4CB 0 | PLK1 = 0 | PRKAA1 = 0 | PRKCA 0 | PTK2 = 0 | PTK2B 0 | RAF1 = 0 | [1] 0 | RET 0 | [2] 0 | RIOK1 = 0 | RIPK1 = 0 | RIPK2 = 0 | ROR2 = 0 | RPS6KA1 = 0 | SPHK1 = 0 | SRC 0 | STK24 = 0

O=c1[nH]ccc2nc(-c3ccc(CN4CCC(c5nc(-c6ccccn6)n[nH]5)CC4)cc3)c(-c3ccccc3)cc12 (10 µM)
inactive: PDPK1 = 0 | PIK4CA 0 | PIK4CB 0 | PLK1 = 0 | PRKAA1 = 0 | PRKCA 0 | PTK2 = 0 | PTK2B 0 | RAF1 = 0 | [1] 0 | RET 0 | [2] 0 | RIOK1 = 0 | RIPK1 = 0 | RIPK2 = 0 | ROR2 = 0 | RPS6KA1 = 0 | SPHK1 = 0 | SRC 0 | STK24 = 0

Cc1nn(C)cc1-c1nc2c(N3CCN(Cc4ccc(Cl)cc4)CC3)c(Cl)cnc2[nH]1 (10 µM)
inactive: PDPK1 = 0 | PIK4CA 0 | PIK4CB 0 | PLK1 = 0 | PRKAA1 = 0 | PRKCA 0 | PTK2 = 0 | PTK2B 0 | RAF1 = 0 | [1] 0 | RET 0 | [2] 0 | RIOK1 = 0 | RIPK1 = 0 | RIPK2 = 0 | ROR2 = 0 | RPS6KA1 = 0 | SPHK1 = 0 | SRC 0 | STK24 = 0

O=C1CC[C@H](NC(=O)Cc2ccccc2)C(=O)N1 [Antineoplaston A10] (10 µM)
inactive: PDPK1 = 0 | PIK4CA 0 | PIK4CB 0 | PLK1 = 0 | PRKAA1 = 0 | PRKCA 0 | PTK2 = 0 | PTK2B 0 | RAF1 = 0 | [1] 0 | RET 0 | [2] 0 | RIOK1 = 0 | RIPK1 = 0 | RIPK2 = 0 | ROR2 = 0 | RPS6KA1 = 0 | SPHK1 = 0 | SRC 0 | STK24 = 0

CC1CN(CC2CCN(Cc3ccccc3)CC2)C(=O)N(c2cccc(C(=N)N)c2)C1 (stereo not given) (10 µM)
inactive: PDPK1 = 0 | PIK4CA 0 | PIK4CB 0 | PLK1 = 0 | PRKAA1 = 0 | PRKCA 0 | PTK2 = 0 | PTK2B 0 | RAF1 = 0 | [1] 0 | RET 0 | [2] 0 | RIOK1 = 0 | RIPK1 = 0 | RIPK2 = 0 | ROR2 = 0 | RPS6KA1 = 0 | SPHK1 = 0 | SRC 0 | STK24 = 0

CC(C)n1c([C@H](C)Nc2ncnc(N)c2C#N)cc2cccc(-c3ccc(=O)n(C)c3)c2c1=O (10 µM)
inactive: PDPK1 = 0 | PIK4CA 0 | PIK4CB 0 | PLK1 = 0 | PRKAA1 = 0 | PRKCA 0 | PTK2 = 0 | PTK2B 0 | RAF1 = 0 | [1] 0 | RET 0 | [2] 0 | RIOK1 = 0 | RIPK1 = 0 | RIPK2 = 0 | ROR2 = 0 | RPS6KA1 = 0 | SPHK1 = 0 | SRC 0 | STK24 = 0

CN1CCN(c2cc(-c3ccncc3)c(-c3ccc4ccccc4c3)nn2)CC1 (10 µM)
inactive: PDPK1 = 0 | PIK4CA 0 | PIK4CB 0 | PLK1 = 0 | PRKAA1 = 0 | PRKCA 0 | PTK2 = 0 | PTK2B 0 | RAF1 = 0 | [1] 0 | RET 0 | [2] 0 | RIOK1 = 0 | RIPK1 = 0 | RIPK2 = 0 | ROR2 = 0 | RPS6KA1 = 0 | SPHK1 = 0 | SRC 0 | STK24 = 0

Cn1c2cc([S+](C)[O-])sc2c2cnn(Cc3cccc(N)c3)c(=O)c21 (stereo not given) (2.5 µM)
inactive: PDPK1 = 0 | PIK4CA 0 | PIK4CB 0 | PLK1 = 0 | PRKAA1 = 0 | PRKCA 0 | PTK2 = 0 | PTK2B 0 | RAF1 = 0 | [1] 0 | RET 0 | [2] 0 | RIOK1 = 0 | RIPK1 = 0 | RIPK2 = 0 | ROR2 = 0 | RPS6KA1 = 0 | SPHK1 = 0 | SRC 0 | STK24 = 0

Cc1cc(C(=O)NOCCO)c(Nc2ccc(I)cc2F)n(C)c1=O (10 µM)
inactive: PDPK1 = 0 | PIK4CA 0 | PIK4CB 0 | PLK1 = 0 | PRKAA1 = 0 | PRKCA 0 | PTK2 = 0 | PTK2B 0 | RAF1 = 0 | [1] 0 | RET 0 | [2] 0 | RIOK1 = 0 | RIPK1 = 0 | RIPK2 = 0 | ROR2 = 0 | RPS6KA1 = 0 | SPHK1 = 0 | SRC 0 | STK24 = 0

CN(C)c1ccc(-c2nc3ncc(Cl)c(N4CCN(CC(=O)Nc5nccs5)CC4)c3[nH]2)cc1 (2 µM)
inactive: PDPK1 = 0 | PIK4CA 0 | PIK4CB 0 | PLK1 = 0 | PRKAA1 = 0 | PRKCA 0 | PTK2 = 0 | PTK2B 0 | RAF1 = 0 | [1] 0 | RET 0 | [2] 0 | RIOK1 = 0 | RIPK1 = 0 | RIPK2 = 0 | ROR2 = 0 | RPS6KA1 = 0 | SPHK1 = 0 | SRC 0 | STK24 = 0
